Assay results from the supplement of paper PMC10849652.
This is one part of the list.

Chains of the proteins cited; added tags and fusions are not shown. Lines headed by an entry give the natural chain unless they say otherwise; changes in a name come on top.
UniProt Q6IPR1: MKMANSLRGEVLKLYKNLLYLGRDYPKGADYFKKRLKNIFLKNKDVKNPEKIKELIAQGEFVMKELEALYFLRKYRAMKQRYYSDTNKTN
UniProt Q96B26, whole entry, looked up: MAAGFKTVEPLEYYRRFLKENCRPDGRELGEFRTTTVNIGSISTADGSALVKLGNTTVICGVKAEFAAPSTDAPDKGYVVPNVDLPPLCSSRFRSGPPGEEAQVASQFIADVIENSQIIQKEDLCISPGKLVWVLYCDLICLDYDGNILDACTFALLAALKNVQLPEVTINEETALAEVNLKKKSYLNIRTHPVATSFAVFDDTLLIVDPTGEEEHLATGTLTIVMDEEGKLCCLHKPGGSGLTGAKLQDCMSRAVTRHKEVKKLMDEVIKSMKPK
UniProt Q2NKX8: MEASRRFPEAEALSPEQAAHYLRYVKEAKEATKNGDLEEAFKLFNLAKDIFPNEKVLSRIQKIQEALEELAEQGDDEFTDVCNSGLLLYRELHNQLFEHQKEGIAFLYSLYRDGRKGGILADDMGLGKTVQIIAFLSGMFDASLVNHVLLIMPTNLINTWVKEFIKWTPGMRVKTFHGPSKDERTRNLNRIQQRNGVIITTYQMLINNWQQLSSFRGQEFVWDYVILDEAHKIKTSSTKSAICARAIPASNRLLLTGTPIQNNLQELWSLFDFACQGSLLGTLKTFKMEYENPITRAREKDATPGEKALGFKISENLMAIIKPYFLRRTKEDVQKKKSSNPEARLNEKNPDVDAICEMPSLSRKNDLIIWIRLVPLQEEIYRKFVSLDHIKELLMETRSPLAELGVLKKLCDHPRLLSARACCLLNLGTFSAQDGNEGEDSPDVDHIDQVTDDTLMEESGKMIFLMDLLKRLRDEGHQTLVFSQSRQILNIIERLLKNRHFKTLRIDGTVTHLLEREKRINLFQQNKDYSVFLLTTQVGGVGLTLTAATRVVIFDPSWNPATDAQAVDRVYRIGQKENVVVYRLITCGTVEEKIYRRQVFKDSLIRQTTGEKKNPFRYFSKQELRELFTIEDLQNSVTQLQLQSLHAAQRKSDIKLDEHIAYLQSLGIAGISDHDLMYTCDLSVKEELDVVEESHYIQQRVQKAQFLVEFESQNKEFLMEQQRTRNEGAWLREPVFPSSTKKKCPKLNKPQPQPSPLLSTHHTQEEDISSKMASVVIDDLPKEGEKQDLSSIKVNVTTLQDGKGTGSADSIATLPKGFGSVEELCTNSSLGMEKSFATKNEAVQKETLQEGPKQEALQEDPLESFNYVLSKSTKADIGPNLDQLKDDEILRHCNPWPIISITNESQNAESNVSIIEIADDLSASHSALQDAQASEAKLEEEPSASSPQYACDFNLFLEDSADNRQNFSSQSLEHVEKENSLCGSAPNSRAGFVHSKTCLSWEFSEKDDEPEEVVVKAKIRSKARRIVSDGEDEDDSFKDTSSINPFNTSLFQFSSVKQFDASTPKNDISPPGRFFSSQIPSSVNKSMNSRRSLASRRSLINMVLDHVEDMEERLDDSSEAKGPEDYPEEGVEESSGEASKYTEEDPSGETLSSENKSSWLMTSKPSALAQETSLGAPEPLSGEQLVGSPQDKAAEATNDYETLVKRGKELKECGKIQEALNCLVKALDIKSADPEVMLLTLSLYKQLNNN
UniProt Q96RT1: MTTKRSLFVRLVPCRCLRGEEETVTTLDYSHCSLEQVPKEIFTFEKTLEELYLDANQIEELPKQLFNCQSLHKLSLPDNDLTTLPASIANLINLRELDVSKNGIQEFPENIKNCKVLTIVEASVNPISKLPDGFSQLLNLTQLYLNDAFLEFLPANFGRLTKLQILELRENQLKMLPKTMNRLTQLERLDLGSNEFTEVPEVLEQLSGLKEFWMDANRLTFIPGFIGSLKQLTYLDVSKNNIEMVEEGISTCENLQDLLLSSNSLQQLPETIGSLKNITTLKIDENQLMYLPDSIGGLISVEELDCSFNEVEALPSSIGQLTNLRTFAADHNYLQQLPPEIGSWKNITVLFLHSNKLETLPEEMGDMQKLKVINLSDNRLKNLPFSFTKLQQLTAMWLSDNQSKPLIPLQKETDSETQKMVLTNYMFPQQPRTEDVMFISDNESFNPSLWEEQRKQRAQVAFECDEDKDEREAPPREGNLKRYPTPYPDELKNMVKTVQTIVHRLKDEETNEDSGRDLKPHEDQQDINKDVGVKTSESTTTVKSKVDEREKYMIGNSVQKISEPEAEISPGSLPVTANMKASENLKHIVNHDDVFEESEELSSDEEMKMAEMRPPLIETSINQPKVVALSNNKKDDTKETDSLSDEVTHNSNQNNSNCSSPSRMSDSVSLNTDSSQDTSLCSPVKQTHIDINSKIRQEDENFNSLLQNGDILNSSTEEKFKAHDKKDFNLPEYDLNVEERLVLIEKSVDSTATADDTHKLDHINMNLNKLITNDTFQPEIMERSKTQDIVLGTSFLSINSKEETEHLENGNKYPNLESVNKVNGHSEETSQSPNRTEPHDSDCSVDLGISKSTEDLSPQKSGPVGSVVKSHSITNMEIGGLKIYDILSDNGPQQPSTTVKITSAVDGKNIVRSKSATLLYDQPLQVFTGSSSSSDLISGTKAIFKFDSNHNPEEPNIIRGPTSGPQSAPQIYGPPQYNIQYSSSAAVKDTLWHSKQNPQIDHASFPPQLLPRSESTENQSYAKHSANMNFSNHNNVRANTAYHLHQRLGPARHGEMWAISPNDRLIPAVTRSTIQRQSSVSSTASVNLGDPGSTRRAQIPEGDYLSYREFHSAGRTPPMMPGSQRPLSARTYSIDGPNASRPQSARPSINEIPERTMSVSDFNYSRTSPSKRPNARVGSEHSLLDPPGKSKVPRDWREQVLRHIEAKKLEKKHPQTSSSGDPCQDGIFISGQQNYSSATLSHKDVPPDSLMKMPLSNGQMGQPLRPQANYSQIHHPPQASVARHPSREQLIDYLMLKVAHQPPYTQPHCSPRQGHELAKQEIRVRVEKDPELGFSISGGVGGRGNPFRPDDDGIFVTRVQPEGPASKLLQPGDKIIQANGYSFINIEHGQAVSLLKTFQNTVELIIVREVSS
UniProt O43909: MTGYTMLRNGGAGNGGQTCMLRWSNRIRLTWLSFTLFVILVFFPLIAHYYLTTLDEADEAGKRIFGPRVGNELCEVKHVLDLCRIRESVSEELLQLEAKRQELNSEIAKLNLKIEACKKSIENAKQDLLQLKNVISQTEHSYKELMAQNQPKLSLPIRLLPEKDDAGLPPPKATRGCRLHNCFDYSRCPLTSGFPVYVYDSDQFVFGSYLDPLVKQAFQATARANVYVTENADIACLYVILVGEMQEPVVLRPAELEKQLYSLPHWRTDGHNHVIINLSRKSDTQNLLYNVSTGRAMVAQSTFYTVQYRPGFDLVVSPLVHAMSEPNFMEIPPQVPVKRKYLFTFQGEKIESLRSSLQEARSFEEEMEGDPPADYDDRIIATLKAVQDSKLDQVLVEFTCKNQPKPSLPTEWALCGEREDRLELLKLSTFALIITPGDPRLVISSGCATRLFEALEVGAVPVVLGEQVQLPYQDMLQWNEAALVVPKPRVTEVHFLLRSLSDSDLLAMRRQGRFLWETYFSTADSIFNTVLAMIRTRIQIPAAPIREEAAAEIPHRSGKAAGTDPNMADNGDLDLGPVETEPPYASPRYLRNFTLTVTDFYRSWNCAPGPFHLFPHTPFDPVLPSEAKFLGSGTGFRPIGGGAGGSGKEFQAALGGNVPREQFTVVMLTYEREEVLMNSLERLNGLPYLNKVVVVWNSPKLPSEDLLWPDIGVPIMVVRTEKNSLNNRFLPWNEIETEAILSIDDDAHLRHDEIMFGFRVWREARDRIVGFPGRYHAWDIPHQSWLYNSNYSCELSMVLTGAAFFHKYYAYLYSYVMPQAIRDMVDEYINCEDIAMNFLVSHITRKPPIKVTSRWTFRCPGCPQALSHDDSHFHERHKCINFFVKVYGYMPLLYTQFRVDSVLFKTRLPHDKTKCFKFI
UniProt Q8N612: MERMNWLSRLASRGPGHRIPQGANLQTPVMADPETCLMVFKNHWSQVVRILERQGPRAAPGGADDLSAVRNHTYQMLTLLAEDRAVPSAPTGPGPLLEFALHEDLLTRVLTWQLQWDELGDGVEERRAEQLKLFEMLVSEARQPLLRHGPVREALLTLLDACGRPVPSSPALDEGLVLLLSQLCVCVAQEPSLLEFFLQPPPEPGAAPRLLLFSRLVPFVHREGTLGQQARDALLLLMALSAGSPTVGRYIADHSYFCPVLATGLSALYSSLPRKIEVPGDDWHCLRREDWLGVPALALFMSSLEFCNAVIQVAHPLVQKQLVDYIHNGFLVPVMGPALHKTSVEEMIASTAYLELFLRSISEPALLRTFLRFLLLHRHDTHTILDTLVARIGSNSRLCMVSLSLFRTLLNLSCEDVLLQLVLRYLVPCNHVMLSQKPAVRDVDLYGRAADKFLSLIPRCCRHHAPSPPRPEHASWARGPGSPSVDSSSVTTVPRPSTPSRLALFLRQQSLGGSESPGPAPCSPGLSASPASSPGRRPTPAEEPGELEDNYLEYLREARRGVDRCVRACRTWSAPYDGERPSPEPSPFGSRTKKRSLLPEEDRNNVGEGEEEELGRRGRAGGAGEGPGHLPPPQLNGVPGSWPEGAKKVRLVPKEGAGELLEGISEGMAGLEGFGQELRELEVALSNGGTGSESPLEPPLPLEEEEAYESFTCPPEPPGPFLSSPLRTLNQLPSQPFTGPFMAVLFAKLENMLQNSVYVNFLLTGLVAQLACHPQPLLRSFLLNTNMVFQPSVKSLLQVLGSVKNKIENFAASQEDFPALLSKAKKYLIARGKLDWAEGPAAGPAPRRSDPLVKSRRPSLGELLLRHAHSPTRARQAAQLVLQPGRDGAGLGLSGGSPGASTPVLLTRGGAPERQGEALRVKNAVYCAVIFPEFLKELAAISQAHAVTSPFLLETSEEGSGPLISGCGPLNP
UniProt Q9UBC2: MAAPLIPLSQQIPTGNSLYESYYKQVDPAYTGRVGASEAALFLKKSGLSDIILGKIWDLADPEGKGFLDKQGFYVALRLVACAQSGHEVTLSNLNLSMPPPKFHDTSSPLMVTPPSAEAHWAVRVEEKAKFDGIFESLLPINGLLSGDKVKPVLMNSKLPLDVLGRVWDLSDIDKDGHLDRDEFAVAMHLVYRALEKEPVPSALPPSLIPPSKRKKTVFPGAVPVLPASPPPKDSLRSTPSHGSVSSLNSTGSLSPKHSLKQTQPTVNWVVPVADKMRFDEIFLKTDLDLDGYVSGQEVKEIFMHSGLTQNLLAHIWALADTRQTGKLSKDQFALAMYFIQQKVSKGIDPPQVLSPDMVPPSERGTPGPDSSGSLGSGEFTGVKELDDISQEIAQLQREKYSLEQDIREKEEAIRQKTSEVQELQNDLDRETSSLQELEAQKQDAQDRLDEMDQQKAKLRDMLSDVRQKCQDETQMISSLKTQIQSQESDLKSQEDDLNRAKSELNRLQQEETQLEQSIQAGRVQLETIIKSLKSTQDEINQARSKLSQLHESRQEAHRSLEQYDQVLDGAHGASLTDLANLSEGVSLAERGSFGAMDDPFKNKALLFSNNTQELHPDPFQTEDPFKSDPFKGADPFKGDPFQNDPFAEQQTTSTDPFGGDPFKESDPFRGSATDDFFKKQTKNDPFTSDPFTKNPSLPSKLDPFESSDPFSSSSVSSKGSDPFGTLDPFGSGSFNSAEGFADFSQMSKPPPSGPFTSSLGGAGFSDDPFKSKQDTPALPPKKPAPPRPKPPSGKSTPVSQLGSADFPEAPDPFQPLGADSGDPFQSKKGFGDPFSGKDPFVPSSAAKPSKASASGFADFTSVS
UniProt P11474: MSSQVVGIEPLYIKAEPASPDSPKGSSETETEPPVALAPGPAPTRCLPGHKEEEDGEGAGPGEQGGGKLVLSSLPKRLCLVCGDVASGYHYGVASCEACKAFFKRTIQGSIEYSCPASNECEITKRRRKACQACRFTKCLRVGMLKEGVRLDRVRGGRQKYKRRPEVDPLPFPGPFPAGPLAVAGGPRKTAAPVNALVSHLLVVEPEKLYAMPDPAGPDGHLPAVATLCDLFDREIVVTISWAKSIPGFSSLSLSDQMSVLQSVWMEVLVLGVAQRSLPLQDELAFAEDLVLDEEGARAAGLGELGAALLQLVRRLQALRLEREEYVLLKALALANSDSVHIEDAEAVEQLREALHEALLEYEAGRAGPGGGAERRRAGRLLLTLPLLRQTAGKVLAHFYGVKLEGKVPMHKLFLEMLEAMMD
UniProt P84090, whole entry, looked up: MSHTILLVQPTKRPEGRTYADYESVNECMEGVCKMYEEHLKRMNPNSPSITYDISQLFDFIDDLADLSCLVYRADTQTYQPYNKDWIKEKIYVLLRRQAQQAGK
UniProt Q8N128: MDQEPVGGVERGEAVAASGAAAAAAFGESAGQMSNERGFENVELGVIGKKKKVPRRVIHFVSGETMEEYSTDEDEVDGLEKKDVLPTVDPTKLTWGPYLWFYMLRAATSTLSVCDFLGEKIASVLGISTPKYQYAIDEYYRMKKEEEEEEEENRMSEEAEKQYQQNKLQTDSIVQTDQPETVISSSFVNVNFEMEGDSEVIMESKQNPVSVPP

Tests used:
Experiment in all cases: log2 fold change, soluble protein after heating vs DMSO (PISA); higher = thermal stabilisation; K562 cells, 10 uM, 30 min; active = over 0.2 and 3.5 SD of the protein, either way, in both replicates (recomputed)
[1] = compound: Cc1ccc(NC(=O)c2ccc(CN3CC[C@H](N(C)C)C3)c(C(F)(F)F)c2)cc1Nc1nccc(-c2cncnc2)n1 [bafetinib]
How it was run: (§1)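 Values are thermal stability changes relative to control samples and are taken from duplicates. They are stated as log2 fold changes. Before quantification by TMTpro 16plex LC-MS/MS with equalised channel sums, K562 cells at 2×10^6 cells/mL were treated with 10 μM compound for 30 min, heated in aliquots for 3 min across 48°C-58°C, pooled, extracted in PBS with 0.5% NP-40 at 4°C, and centrifuged at 21,000xg for 90 min to give the soluble supernatant.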

[2] = compound: Cc1cccc(CC(=O)N2CCc3c2ccc(-c2cn(C)c4ncnc(N)c24)c3F)n1
How it was run: as §1

[3] = compound: Cc1cn(-c2cc(NC(=O)c3ccc(C)c(Nc4nccc(-c5cccnc5)n4)c3)cc(C(F)(F)F)c2)cn1 [nilotinib]
How it was run: as §1

[4] = compound: Cc1nc(Nc2n[nH]c3c2CN(C(=O)N[C@H](CN(C)C)c2ccccc2)C3(C)C)c2sccc2n1
How it was run: as §1

[5] = compound: Cc1nc(Nc2ncc(C(=O)Nc3c(C)cccc3Cl)s2)cc(N2CCN(CCO)CC2)n1 [dasatinib]
How it was run: as §1

[6] = compound: Cc1ncc(-c2ccnc(Nc3ccc(S(C)(=O)=O)cc3)n2)n1C(C)C
How it was run: as §1

[7] = compound: Cn1cc(-c2ccc3c(c2)CCN3C(=O)Cc2cccc(C(F)(F)F)c2)c2c(N)ncnc21
How it was run: as §1

[8] = compound: Cn1cc(-c2ccc3nnc(C(F)(F)c4ccc5ncccc5c4)n3n2)cn1
How it was run: as §1

[9] = compound: Cn1cncc1[C@@](N)(c1ccc(Cl)cc1)c1ccc2c(c1)c(-c1cccc(Cl)c1)cc(=O)n2C [tipifarnib]
How it was run: as §1

[10] = compound: FC(F)(F)c1ccc(/C=C/c2nc(COc3ccc(CCCCn4ccnn4)cc3)co2)cc1 [mubritinib]
How it was run: as §1

[11] = compound: NC(=O)Nc1cc(-c2cccc(F)c2)sc1C(=O)N[C@H]1CCCNC1
How it was run: as §1

[12] = compound: NC(=O)c1cnc(N[C@@H]2CCCC[C@@H]2N)nc1Nc1cccc(-n2nccn2)c1
How it was run: as §1

[13] = compound: NC1(c2ccc(-c3nc4ccn5c(=O)[nH]nc5c4cc3-c3ccccc3)cc2)CCC1
How it was run: as §1

[14] = compound: NCC(=O)Nc1ccc(-n2nc(C(F)(F)F)cc2-c2ccc3c(ccc4ccccc43)c2)cc1
How it was run: as §1

[15] = compound: Nc1ccccc1NC(=O)c1ccc(CNC(=O)OCc2cccnc2)cc1 [entinostat]
How it was run: as §1

[16] = compound: O=C(CCCCCCC(=O)Nc1ccccc1)NO [vorinostat]
How it was run: as §1

[17] = compound: O=C(CCCCCCNC(=O)c1cnc(N(c2ccccc2)c2ccccc2Cl)nc1)NO [citarinostat]
How it was run: as §1

[18] = compound: O=C(O)c1ccc2c(c1)nc(Nc1cccc(Cl)c1)c1ccncc12 [silmitasertib]
How it was run: as §1

[19] = compound: O=C1NC(=O)C(c2cnc3ccccn23)=C1c1cn2c3c(cc(F)cc13)CN(C(=O)N1CCCCC1)CC2
How it was run: as §1

[20] = compound: c1cc(OCCN2CCCCC2)cc(-c2n[nH]c3ccc(-c4nnc[nH]4)cc23)c1
How it was run: as §1

Measured: log2 fold change

EXOC2 (UniProt Q96KP1)
inactive: [1] 0.021 | [2] -0.089 | [3] -0.002 | [4] -0.135 | [5] -0.301 | [6] 0.028 | [7] -0.011 | [8] -0.081 | [9] -0.066 | [10] 0.035 | [11] 0.039 | [12] -0.084 | [13] -0.218 | [14] -0.024 | [15] 0.052 | [16] -0.013 | [17] 0.105 | [18] 0.035 | [19] 0.028 | [20] -0.102

ETFRF1 (UniProt Q6IPR1)
inactive: [1] -0.079 | [2] -0.114 | [3] -0.111 | [4] -0.101 | [5] 0.077 | [6] -0.182 | [7] 0.104 | [8] 0.088 | [9] 0.057 | [10] 0.082 | [11] -0.017 | [12] 0.18 | [13] 0.054 | [14] -0.003 | [15] -0.087 | [16] -0.116 | [18] -0.02 | [19] -0.034

EXOSC8 (UniProt Q96B26)
inactive: [1] -0.035 | [2] -0.105 | [3] 0.002 | [4] 0 | [5] 0.052 | [6] -0.016 | [7] -0.039 | [8] -0.008 | [9] 0.002 | [10] -0.006 | [11] -0.048 | [12] -0.065 | [13] 0.035 | [14] -0.032 | [15] -0.041 | [16] -0.078 | [17] -0.009 | [18] 0.015 | [19] 0.019 | [20] -0.046

ERCC6L (UniProt Q2NKX8)
inactive: [1] -0.025 | [2] -0.116 | [3] -0.153 | [4] -0.263 | [6] 0.086 | [7] -0.142 | [8] -0.219 | [9] -0.034 | [11] -0.029 | [12] -0.122 | [14] 0.055 | [15] 0.017 | [16] 0.147 | [17] 0.023 | [19] 0.267 | [20] -0.117

ERBIN isoform 8 (UniProt Q96RT1)
inactive: [1] 0.042 | [2] 0.231 | [3] 0.08 | [4] -0.036 | [5] -0.061 | [6] -0.075 | [7] 0.05 | [8] -0.056 | [9] 0.006 | [10] 0.069 | [11] -0.043 | [12] 0.022 | [13] -0.086 | [14] -0.055 | [15] 0.111 | [16] 0.173 | [17] -0.007 | [18] -0.037 | [19] -0.121 | [20] -0.033

ERCC3 (UniProt P19447)
inactive: [1] 0.062 | [2] -0.071 | [3] 0.033 | [4] -0.103 | [5] -0.111 | [6] 0.048 | [7] -0.121 | [8] -0.082 | [9] -0.165 | [10] -0.009 | [11] 0.068 | [12] -0.052 | [13] -0.323 | [14] -0.013 | [15] 0.043 | [16] 0.073 | [18] 0.133 | [19] 0.135

EXTL3 (UniProt O43909)
inactive: [1] 0.063 | [2] -0.011 | [3] -0.177 | [4] 0.09 | [5] -0.176 | [6] -0.164 | [7] 0.086 | [8] 0.001 | [9] -0.025 | [10] -0.048 | [11] -0.177 | [12] -0.247 | [13] -0.24 | [14] 0.058 | [15] -0.004 | [16] 0.006 | [17] -0.028 | [18] -0.063 | [19] 0.126 | [20] 0.046

FAM160A2 isoform 2 (UniProt Q8N612)
inactive: [1] -0.208 | [2] -0.145 | [3] -0.085 | [4] 0.192 | [5] -0.186 | [6] -0.101 | [7] -0.083 | [8] 0.046 | [10] 0.093 | [13] 0.158 | [14] -0.26 | [16] -0.009 | [17] -0.154 | [18] 0.057 | [19] 0.026 | [20] 0.068

EXOSC6 (UniProt Q5RKV6)
inactive: [1] -0.012 | [2] -0.043 | [3] 0.024 | [4] 0.03 | [5] 0.034 | [6] -0.047 | [7] -0.007 | [8] -0.005 | [9] -0.033 | [10] 0.032 | [11] 0.055 | [12] 0.049 | [13] 0.054 | [14] 0.097 | [15] -0.035 | [16] -0.04 | [17] 0.015 | [18] -0.021 | [19] 0.087 | [20] -0.007

EPS15L1 isoform 2 (UniProt Q9UBC2)
inactive: [1] -0.045 | [2] 0.066 | [3] -0.087 | [4] 0.124 | [5] -0.046 | [6] 0.045 | [7] -0.061 | [8] 0.006 | [9] -0.081 | [10] 0.049 | [11] -0.022 | [12] -0.051 | [13] -0.131 | [14] -0.025 | [15] 0.067 | [16] 0.048 | [17] 0.06 | [18] 0.072 | [19] 0 | [20] -0.016

ESRRA (UniProt P11474)
inactive: [1] -0.026 | [2] 0.015 | [3] -0.057 | [4] -0.01 | [5] -0.01 | [6] 0.068 | [7] 0.077 | [8] -0.007 | [9] -0.006 | [10] 0.003 | [11] -0.051 | [12] 0.024 | [13] -0.045 | [14] -0.064 | [15] -0.033 | [17] -0.019 | [18] 0.003 | [19] -0.059 | [20] 0.022

ERH (UniProt P84090)
inactive: [1] -0.085 | [2] -0.068 | [3] 0.085 | [4] -0.184 | [5] 0.097 | [6] -0.039 | [7] 0.107 | [8] 0.104 | [9] 0.021 | [10] -0.043 | [12] 0.001 | [13] 0.11 | [14] 0.002 | [16] -0.191 | [17] 0.029 | [18] -0.128 | [19] 0.097 | [20] -0.183

Quoted from the listing (two entries):
EXOSC6 (UniProt Q5RKV6)
inactive: [1] -0.012 | [2] -0.043 | [3] 0.024 | [4] 0.03 | [5] 0.034 | [6] -0.047 | [7] -0.007 | [8] -0.005 | [9] -0.033 | [10] 0.032 | [11] 0.055 | [12] 0.049 | [13] 0.054 | [14] 0.097 | [15] -0.035 | [16] -0.04 | [17] 0.015 | [18] -0.021 | [19] 0.087 | [20] -0.007

EPS15L1 isoform 2 (UniProt Q9UBC2)
inactive: [1] -0.045 | [2] 0.066 | [3] -0.087 | [4] 0.124 | [5] -0.046 | [6] 0.045 | [7] -0.061 | [8] 0.006 | [9] -0.081 | [10] 0.049 | [11] -0.022 | [12] -0.051 | [13] -0.131 | [14] -0.025 | [15] 0.067 | [16] 0.048 | [17] 0.06 | [18] 0.072 | [19] 0 | [20] -0.016

(next part)

EXOSC3 (UniProt Q9NQT5)
inactive: [1] 0.047 | [2] 0.051 | [3] -0.09 | [4] 0.059 | [5] -0.039 | [6] -0.047 | [7] -0.005 | [8] -0.029 | [9] -0.005 | [10] -0.015 | [11] 0.035 | [12] -0.018 | [13] -0.054 | [14] -0.03 | [15] -0.024 | [16] 0.008 | [17] 0.044 | [18] 0.007 | [19] 0 | [20] -0.033

EPB41L2 (UniProt O43491)
inactive: [1] -0.021 | [2] 0.002 | [3] 0.055 | [4] -0.067 | [5] 0.003 | [6] -0.063 | [7] 0.06 | [8] -0.009 | [9] 0.032 | [10] 0.026 | [11] -0.129 | [12] 0.034 | [13] 0.037 | [14] -0.034 | [15] -0.042 | [16] -0.02 | [17] 0.014 | [18] -0.01 | [19] -0.038 | [20] -0.023

FAM207A (UniProt Q9NSI2)
inactive: [1] 0.002 | [2] 0.076 | [3] -0.071 | [4] -0.087 | [5] 0.006 | [6] -0.059 | [8] -0.127 | [9] 0.003 | [10] -0.238 | [11] -0.005 | [12] 0.076 | [13] -0.165 | [14] -0.042 | [15] 0.052 | [16] 0.015 | [17] 0.106 | [18] 0.356 | [19] 0.099 | [20] -0.117

FAM177A1 isoform 2 (UniProt Q8N128)
inactive: [1] -0.125 | [2] -0.007 | [3] -0.113 | [4] 0.005 | [5] -0.098 | [6] -0.044 | [7] 0.038 | [8] -0.005 | [9] -0.01 | [10] 0.004 | [11] 0.047 | [12] -0.053 | [13] -0.023 | [14] -0.038 | [15] 0.007 | [16] 0.072 | [17] 0.047 | [18] 0.029 | [19] -0.089 | [20] 0.002
